Experimental findings from publication PMC10641069, “Intra- and inter-molecular regulation by intrinsically-disordered regions governs PUF protein RNA binding” (Nature Communications, 2023) are described below.

The exact form of at least one protein or probe is not confirmed.

The Kd is the concentration at which binding is half-saturated.

The test system of this series is FBF-2 RBD + LST-1 B peptide. Briefly: EMSA. The note with it: 50 uM LST-1 B; EMSA: FBF-2 in 20 mM HEPES pH 7.4, 150 mM NaCl, 0.5 mM TCEP mixed 1:1 with 5 nM final RNA in 10 mM HEPES pH 7.4, 0.01% Tween 20, 0.1 mg/ml BSA, 0.1 mg/ml yeast tRNA; recombinant protein; label: 3'-Cy5. (In general: In EMSA bound probe runs differently from free probe, usually more slowly.)

As to AUCAUGUGCCAUAC [gld-1 FBEa RNA (EMSA)], the Kd was 176 nM.
